Test results taken from US12447151B2, “Alkyne derivative, preparation method for same, and uses thereof” (ZHEJIANG HISUN PHARMACEUTICAL CO., LTD., priority 2019, dated 2025).
At least one structure is not confirmed: it was looked up by name or label, or the drawing left a doubt.

Chains of the proteins cited; added tags and fusions are not shown. Lines headed by an entry give the natural chain unless they say otherwise; changes in a name come on top.
UniProt P48736: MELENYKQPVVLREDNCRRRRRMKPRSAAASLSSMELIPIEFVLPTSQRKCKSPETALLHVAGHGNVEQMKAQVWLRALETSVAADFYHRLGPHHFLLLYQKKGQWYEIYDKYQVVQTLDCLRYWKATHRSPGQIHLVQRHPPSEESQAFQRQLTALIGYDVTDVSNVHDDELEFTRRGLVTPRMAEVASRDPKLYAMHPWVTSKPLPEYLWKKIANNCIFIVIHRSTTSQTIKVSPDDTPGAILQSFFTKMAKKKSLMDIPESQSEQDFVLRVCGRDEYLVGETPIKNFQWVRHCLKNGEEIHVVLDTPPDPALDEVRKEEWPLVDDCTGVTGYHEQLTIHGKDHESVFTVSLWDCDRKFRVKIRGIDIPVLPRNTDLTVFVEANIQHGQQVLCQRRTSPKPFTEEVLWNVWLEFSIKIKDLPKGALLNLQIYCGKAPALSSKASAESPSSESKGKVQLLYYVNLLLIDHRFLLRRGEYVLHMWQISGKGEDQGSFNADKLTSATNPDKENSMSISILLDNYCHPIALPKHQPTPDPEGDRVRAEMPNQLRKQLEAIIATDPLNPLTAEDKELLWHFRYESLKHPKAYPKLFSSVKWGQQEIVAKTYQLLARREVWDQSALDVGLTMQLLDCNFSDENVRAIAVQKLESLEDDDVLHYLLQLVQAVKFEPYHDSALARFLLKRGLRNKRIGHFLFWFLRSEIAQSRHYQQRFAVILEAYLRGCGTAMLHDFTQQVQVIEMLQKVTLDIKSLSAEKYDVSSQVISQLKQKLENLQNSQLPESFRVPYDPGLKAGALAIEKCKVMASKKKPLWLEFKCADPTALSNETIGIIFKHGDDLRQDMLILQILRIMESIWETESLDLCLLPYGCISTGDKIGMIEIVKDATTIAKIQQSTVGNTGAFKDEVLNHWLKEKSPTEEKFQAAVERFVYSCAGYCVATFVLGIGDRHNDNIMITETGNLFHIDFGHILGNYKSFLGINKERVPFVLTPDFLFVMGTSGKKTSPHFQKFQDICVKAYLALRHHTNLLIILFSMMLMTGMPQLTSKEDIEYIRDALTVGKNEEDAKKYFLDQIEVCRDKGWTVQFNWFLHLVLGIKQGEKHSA

Target: recombinant human PI3Kγ (Homo sapiens (Human), UniProt P48736)
Experiment: Inhibitory activity on PI3K kinase (ADP-Glo Kinase Assay)
Type: biochemical
Excerpt: The following method is used to determine the degree of inhibition of recombinant human PI3Kα, PI3Kβ, PI3Kγ and PI3Kδ kinase activity by the compounds of the present invention under in vitro conditions. Promega's ADP-Glo Kinase Assay Kit (Cat. No. V9102) was used in this method. The above kit was a luminescence kinase detection kit, which was used to detect the ADP content produced by the kinase reaction. The ADP content was positively correlated with the kinase activity. By measuring the ADP content, the inhibition of the compound on the activity of PI3Kα, PI3Kβ, PI3Kγ and PI3Kδ kinases was reflected. For detailed experimental operations, please refer to the kit instructions. Recombinant human PI3Kα, PI3Kγ, and PI3Kδ were purchased from Invitrogen, and PI3Kβ was purchased from Promega (category numbers were PI3Kα: PV4788; PI3Kβ: V1751; PI3Kγ: PV4786 and PI3Kδ: PV6451 separately).

C[C@H](NC(=O)c1c(N)nn2cccnc12)c1nc2ccc(F)c(C#Cc3cnn(C4CC4)c3)c2c(=O)n1-c1ccccc1 [Example 3, (S)-2-amino-N-(1-(5-((1-cyclopropyl-1H-pyrazol-4-yl)ethynyl)-6-fluoro-4-oxo-3-phenyl-3,4-dihydroquinazolin-2-yl)ethyl)pyrazolo[1,5-a]pyrimidine-3-carboxamide]
IC50 (PI3Kα)/IC50(PI3Kγ) (kinase selectivity for PI3Kγ over PI3Kα): 205
IC50 (PI3Kβ)/IC50(PI3Kγ) (kinase selectivity for PI3Kγ over PI3Kβ): 666
IC50 (PI3Kδ)/IC50(PI3Kγ) (kinase selectivity for PI3Kγ over PI3Kδ): 279
